From patent US6140091A, “Anti-idiotype vaccines to elicit catalytic antibodies” (Boston Biomedical Research Institute, priority 1998, dated 2000)
At least one structure is not confirmed: it was looked up by name or label, or the drawing left a doubt.

Test system: mouse myeloma catalytic antibody MOPC 167 (IgA)
Test: MOPC 167 catalyzed acetylthiocholine hydrolysis (esterase activity, Ellman's reagent)
Assay type: biochemical
Source text: It was recognized that the phosphocholine moiety might serve as a transition state analog for ester hydrolysis according to the scheme shown in FIG. 5. MOPC 167 was therefore tested for esterase activity using acetylthiocholine as a substrate and Ellman's reagent (E-ss-E) for the detection of thiol production (Izadyar et al., Proceedings of the National Academy of Sciences of the United States of America 90: 8876-80 (1993)).
Analysis of the Lineweaver-Burk plot for MOPC 167 catalyzed acetylthiocholine hydrolysis (FIG. 7) gave a Michaelis constant, km =627 μM and catalytic constant, kcat =0.25 min^-1 which were close to the values measured for carbonate ester hydrolysis (Pollack et al., Science 234: 1570-1573 (1986)). However, since spontaneous hydrolysis of this substrate is low, kuncat =4×10^-5 min^-1, the kcat /kuncat =6,000 is about 10-fold greater than that recorded for MOPC 167 catalysis of the carbonate ester reaction. That rate enhancement should be increased by using idiotypic mimicry.

CC(=O)SCC[N+](C)(C)C [acetylthiocholine]
catalytic constant, kcat (Lineweaver-Burk plot, acetylthiocholine hydrolysis): 0.00417 s⁻¹
Km (Lineweaver-Burk plot, acetylthiocholine hydrolysis, read-out: Michaelis constant, km): 627 µM
kcat /kuncat (rate enhancement over spontaneous hydrolysis, kuncat =4×10^-5 min^-1): 6,000
